Assay results from PMC6138628 (Scientific Reports, 2018).
Strings that start with PEPTIDE1 are HELM notation: dots part the residues, brackets hold end groups and non-standard residues.

Test: general procedure: Fmoc solid-phase peptide synthesis
Settings: whole synthesis

Substance: PEPTIDE1{H.G.L.A.S.T.L.T.R.W.A.H.Y.N.A.L.I.R.A.F.[am]}$$$$V2.0
- purity (crude or final not stated): higher than 98%
